Test results from patent US6716828B1, “Compounds, methods and pharmaceutical compositions for treating cellular damage, such as neural or cardiovascular tissue damage” (Guilford Pharmaceuticals, Inc., priority 1999, dated 2004).

Test system: male Long-Evans rats
Assay: Focal cerebral ischemia (right distal MCA cauterization with bilateral temporary CCA occlusion)
Assay type: in vivo
Details: for PaCO2 / PaO2 / pH: arterial blood 30 min after MCA occlusion; for MABP Ischemia: average during occlusion; for MABP Steady State: just prior to occlusion; for relative blood flow in the right parietal cortex during occlusion, of the baseline: laser Doppler

O=C1NCCc2c(OCCCCN3CCCCC3)cccc21 [DPQ, 3,4-dihydro-5-[4-(1-piperidinyl)-butoxy]-1(2H)-isoquinolinone]
PaCO2 (5 mg/kg-treated group): 38.0 mm Hg | PaO2 (5 mg/kg-treated group): 126 ± 20 mm Hg | pH (5 mg/kg-treated group): 7.36 | MABP Ischemia (5 mg/kg-treated group): 91 ± 12 mm Hg | MABP Steady State (5 mg/kg-treated group): 78 ± 5 mm Hg | relative blood flow in the right parietal cortex during occlusion, of the baseline (5 mg/kg-treated group): 18.7±7.4% | PaCO2 (10 mg/kg-treated group): 39.3 mm Hg | PaO2 (10 mg/kg-treated group): 125 ± 16 mm Hg | pH (10 mg/kg-treated group): 7.34 | MABP Ischemia (10 mg/kg-treated group): 90 ± 14 mm Hg | MABP Steady State (10 mg/kg-treated group): 80 ± 9 mm Hg | relative blood flow in the right parietal cortex during occlusion, of the baseline (10 mg/kg-treated group): 21.4±7.7% | PaCO2 (20 mg/kg-treated group): 41.3 mm Hg | PaO2 (20 mg/kg-treated group): 122 ± 14 mm Hg | pH (20 mg/kg-treated group): 7.35 | MABP Ischemia (20 mg/kg-treated group): 91 ± 12 mm Hg | MABP Steady State (20 mg/kg-treated group): 79 ± 10 mm Hg | PaCO2 (40 mg/kg-treated group): 39.5 mm Hg | PaO2 (40 mg/kg-treated group): 137 ± 17 mm Hg | pH (40 mg/kg-treated group): 7.33 | MABP Ischemia (40 mg/kg-treated group): 88 ± 12 mm Hg | MABP Steady State (40 mg/kg-treated group): 78 ± 4 mm Hg | relative blood flow in the right parietal cortex during occlusion, of the baseline (40 mg/kg-treated group): 19.3±11.2%
